Reference: PubChem BioAssay AID1259306 (Sanger Institute, 2017)

- Purpose: 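Kinase-wide siRNA screen for partners of targeted drugs in colorectal cancer cells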 (primary screen)
- System: human SNU-C5 colorectal cancer cells
- Reagents: siRNA pool against human genes
- Conditions: DMSO vehicle alone, or one anchor drug: BYL719 at 1 µM, cetuximab at 5 µg/ml or trametinib at 10 nM, given 24 h into the assay
- Measured: 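Replicate-averaged viability against non-targeting pool control, given as fraction and robust z-score; separate synergy scores for BYL719, cetuximab and trametinib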
- Direction: robust z-score, knock-down alone and viability, knock-down alone: higher = more viable cells; synergy score with BYL719: higher = stronger synthetic lethality with BYL719; synergy score with cetuximab: higher = stronger synthetic lethality with cetuximab; synergy score with trametinib: higher = stronger synthetic lethality with trametinib
- Hit rule: 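Essential if knock-down without drug gives a robust z-score under -3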
- Calls: active = essential (knock-down alone); inactive = no change alone
The deposit covers 794 reagents; below is a random part of them. Over the whole deposit, 11 (1.4%) were called active. 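Calls reflect knock-down alone; synergy scores play no part, so knock-downs synergising with a drug can be called no change.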 No viability above 1 is reported: the scale is capped. Not stated in the record: the amount of reagent, the time to read-out.

target | PubChem SID | robust z-score, knock-down alone | viability, knock-down alone | synergy score with BYL719 | synergy score with cetuximab | synergy score with trametinib | call
NRBP1 (GeneID 29959) | SID135620974 | 0.549 | 0.939 | 0.0715 | 0.0316 | -0.0093 | inactive
PRKAR1A (GeneID 5573) | SID135621428 | 0.989 | 1 | 0.127 | 0 | -0.116 | inactive
RPS6KB2 (GeneID 6199) | SID152153683 | 0.755 | 0.968 | 0.198 | -0.0322 | 0.0177 | inactive
RIPK2 (GeneID 8767) | SID152156478 | 0.989 | 1 | 0.0285 | 0 | 0.081 | inactive
NEK5 (GeneID 341676) | SID135624240 | 0.989 | 1 | 0 | 0 | -0.0554 | inactive
PFKM (GeneID 5213) | SID56479129 | 0.5 | 0.933 | -0.0673 | -0.0338 | 0.0107 | inactive
RYK (GeneID 6259) | SID152147158 | 0.989 | 1 | 0 | 0.0106 | -0.217 | inactive
CDC42BPA (GeneID 8476) | SID152147424 | -2.34 | 0.541 | -0.00525 | 0.0827 | -0.246 | inactive
STK17A (GeneID 9263) | SID152148521 | -0.638 | 0.776 | 0.167 | 0.111 | -0.0414 | inactive
OXSR1 (GeneID 9943) | SID152151868 | 0.0608 | 0.872 | 0.124 | -0.128 | -0.0405 | inactive
TEX14 (GeneID 56155) | SID152148327 | -0.56 | 0.787 | 0.125 | 0.0871 | -0.153 | inactive
FLT3 (GeneID 2322) | SID152150278 | -0.448 | 0.802 | 0.123 | 0.0744 | -0.159 | inactive
PRKAR1B (GeneID 5575) | SID152149404 | -0.523 | 0.792 | 0.1 | -0.129 | -0.125 | inactive
MAPK3 (GeneID 5595) | SID135620708 | 0.989 | 1 | 0.148 | 0.0969 | 0.124 | inactive
TSKS (GeneID 60385) | SID56479267 | 0.989 | 1 | 0 | 0.0372 | -0.153 | inactive
CDKN1A (GeneID 1026) | SID56478654 | 0.989 | 1 | 0.0227 | 0 | -0.0799 | inactive
RPS6KC1 (GeneID 26750) | SID135620976 | -1.31 | 0.683 | -0.0352 | -0.00199 | -0.23 | inactive
MAP4K4 (GeneID 9448) | SID56478747 | 0.654 | 0.954 | -0.0331 | -0.0461 | 0.0128 | inactive
FER (GeneID 2241) | SID152156672 | 0.989 | 1 | 0.125 | 0 | -0.147 | inactive
LRRK1 (GeneID 79705) | SID135620970 | 0.579 | 0.944 | 0.0335 | -0.00506 | 0.0303 | inactive
EPHA2 (GeneID 1969) | SID135620614 | 0.978 | 0.998 | 0.101 | -0.00155 | -0.101 | inactive
PHKG1 (GeneID 5260) | SID152147540 | -0.249 | 0.829 | 0.0507 | -0.107 | -0.0529 | inactive
TBCK (GeneID 93627) | SID56479023 | -0.161 | 0.842 | 0.0419 | -0.00388 | -0.0523 | inactive
NEK1 (GeneID 4750) | SID152155530 | 0.458 | 0.927 | -0.0369 | 0.0836 | 0.0216 | inactive
PRKAA2 (GeneID 5563) | SID152151654 | -1.64 | 0.638 | -0.147 | -0.34 | -0.149 | inactive
FN1 (GeneID 2335) | SID134314553 | 0.989 | 1 | 0 | 0 | 0.0258 | inactive
ACVR1C (GeneID 130399) | SID135620908 | 0.989 | 1 | 0.0159 | 0.0328 | -0.235 | inactive
ARAF (GeneID 369) | SID152151166 | 0.798 | 0.974 | -0.0263 | -0.0124 | -0.256 | inactive
EPHB1 (GeneID 2047) | SID152152600 | -0.224 | 0.833 | -0.0972 | -0.0421 | -0.0517 | inactive
BMAL1 (GeneID 406) | SID134314841 | -3.3 | 0.41 | -0.096 | -0.119 | -0.265 | active
STK25 (GeneID 10494) | SID135620899 | 0.504 | 0.933 | 0.211 | 0.089 | 0.041 | inactive
KALRN (GeneID 8997) | SID134314670 | 0.989 | 1 | 0.0428 | 0 | -0.062 | inactive
MYO3B (GeneID 140469) | SID152152883 | 0.989 | 1 | 0.185 | 0 | -0.162 | inactive
CDKL1 (GeneID 8814) | SID56478790 | 0.0148 | 0.866 | 0.18 | -0.0684 | 0.0442 | inactive
MVK (GeneID 4598) | SID56479115 | 0.989 | 1 | 0.167 | 0.295 | -0.0973 | inactive
DCK (GeneID 1633) | SID56479088 | -0.109 | 0.849 | 0.136 | 0.199 | 0.167 | inactive
SGK3 (GeneID 23678) | SID56478777 | 0.989 | 1 | 0 | 0 | -0.023 | inactive
PTPRU (GeneID 10076) | SID152150387 | -0.687 | 0.769 | -0.0172 | -0.0141 | -0.16 | inactive
AK3 (GeneID 50808) | SID56479080 | -0.0089 | 0.863 | 0.028 | 0.077 | -0.103 | inactive
STK36 (GeneID 27148) | SID135620924 | 0.989 | 1 | 0.0248 | 0 | -0.0469 | inactive
PFKFB3 (GeneID 5209) | SID135621247 | 0.532 | 0.937 | -0.0305 | 0.11 | 0.308 | inactive
NEK2 (GeneID 4751) | SID56478772 | -0.712 | 0.766 | 0.00783 | -0.0564 | -0.0465 | inactive
EFNA3 (GeneID 1944) | SID135623696 | -0.2 | 0.836 | 0.00873 | 0.293 | 0.028 | inactive
MAP3K12 (GeneID 7786) | SID56478643 | -0.212 | 0.835 | -0.0846 | -0.165 | -0.181 | inactive
ANKK1 (GeneID 255239) | SID56478922 | -0.212 | 0.834 | -0.079 | 0.116 | -0.104 | inactive
TP53BP1 (GeneID 7158) | SID134309949 | -1.46 | 0.662 | -0.00789 | -0.146 | -0.301 | inactive
PI4KA (GeneID 5297) | SID135621251 | 0.989 | 1 | 0.105 | 0 | -0.0996 | inactive
CDK8 (GeneID 1024) | SID56478602 | 0.989 | 1 | 0 | 0 | 0.0861 | inactive
CDKL2 (GeneID 8999) | SID152156267 | -2.06 | 0.58 | 0.0551 | -0.122 | -0.125 | inactive
ACSL6 (GeneID 23305) | SID152156030 | 0.443 | 0.925 | -0.0752 | -0.0752 | -0.0615 | inactive
PDK1 (GeneID 5163) | SID56478951 | -0.0381 | 0.858 | 0.0886 | -0.142 | -0.0809 | inactive
NTN4 (GeneID 59277) | SID152155179 | 0.278 | 0.902 | -0.0794 | -0.0212 | -0.0996 | inactive
EPHA4 (GeneID 2043) | SID152148822 | 0.415 | 0.921 | 0.114 | -0.0791 | 0.00968 | inactive
PACSIN1 (GeneID 29993) | SID56479194 | 0.318 | 0.908 | 0.0341 | -0.00102 | -0.0139 | inactive
ERN1 (GeneID 2081) | SID135620914 | -3.16 | 0.428 | -0.205 | -0.111 | -0.222 | active
AURKC (GeneID 6795) | SID152150186 | -0.586 | 0.783 | -0.0161 | 0.15 | -0.0362 | inactive
CKM (GeneID 1158) | SID56479085 | 0.989 | 1 | 0 | 0.188 | -0.0333 | inactive
PDK3 (GeneID 5165) | SID152151041 | 0.0797 | 0.875 | -0.0802 | 0.0367 | -0.331 | inactive
MSR1 (GeneID 4481) | SID152150198 | 0.105 | 0.878 | 0.119 | 0.0661 | -0.0302 | inactive
CLK1 (GeneID 1195) | SID152154455 | 0.758 | 0.968 | -0.0318 | 0.174 | -0.181 | inactive
MASTL (GeneID 84930) | SID56478754 | -0.868 | 0.744 | 0.216 | -0.12 | -0.105 | inactive
ACVR2B (GeneID 93) | SID135620907 | -0.728 | 0.763 | -0.00714 | 0.0615 | 0.0625 | inactive
ITPKB (GeneID 3707) | SID56479111 | 0.298 | 0.905 | 0.167 | -0.00352 | -0.164 | inactive

Ordered by “robust z-score, knock-down alone” (high to low): some entries from above
target | PubChem SID | robust z-score, knock-down alone | viability, knock-down alone | synergy score with BYL719 | synergy score with cetuximab | synergy score with trametinib | call
ACVR1C (GeneID 130399) | SID135620908 | 0.989 | 1 | 0.0159 | 0.0328 | -0.235 | inactive
KALRN (GeneID 8997) | SID134314670 | 0.989 | 1 | 0.0428 | 0 | -0.062 | inactive
MYO3B (GeneID 140469) | SID152152883 | 0.989 | 1 | 0.185 | 0 | -0.162 | inactive
MVK (GeneID 4598) | SID56479115 | 0.989 | 1 | 0.167 | 0.295 | -0.0973 | inactive
SGK3 (GeneID 23678) | SID56478777 | 0.989 | 1 | 0 | 0 | -0.023 | inactive
ARAF (GeneID 369) | SID152151166 | 0.798 | 0.974 | -0.0263 | -0.0124 | -0.256 | inactive
STK25 (GeneID 10494) | SID135620899 | 0.504 | 0.933 | 0.211 | 0.089 | 0.041 | inactive
CDKL1 (GeneID 8814) | SID56478790 | 0.0148 | 0.866 | 0.18 | -0.0684 | 0.0442 | inactive
DCK (GeneID 1633) | SID56479088 | -0.109 | 0.849 | 0.136 | 0.199 | 0.167 | inactive
EPHB1 (GeneID 2047) | SID152152600 | -0.224 | 0.833 | -0.0972 | -0.0421 | -0.0517 | inactive
BMAL1 (GeneID 406) | SID134314841 | -3.3 | 0.41 | -0.096 | -0.119 | -0.265 | active
